From paper PMC5871880, “Structural insights into the RNA methyltransferase domain of METTL16” (Scientific Reports, 2018)
These are yes or no findings as the source states them, for the method shown.

Target: N-terminal methyltransferase domain (residues 1-291) of human METTL16 (human) (UniProt Q86W50)
Test: SEC; analytical SEC on Superdex 200 10/300 GL; samples ~21 µM in 100 µl; 25 mM HEPES pH 7.5, 100 mM KCl, 50 mM NaCl, 1 mM TCEP, 1 mM MgCl2; molecular weights from a standard curve; both purified

B1: N-terminal methyltransferase domain (residues 1-291) of human METTL16 (domain or fragment, UniProt Q86W50 1-291)
chain: SNAMALSKSMHARNRYKDKPPDFAYLASKYPDFKQHVQINLNGRVSLNFKDPEAVRALTCTLLREDFGLSIDIPLERLIPTVPLRLNYIHWVEDLIGHQDSDKSTLRRGIDIGTGASCIYPLLGATLNGWYFLATEVDDMCFNYAKKNVEQNNLSDLIKVVKVPQKTLLMDALKEESEIIYDFCMCNPPFFANQLEAKGVNSRNPRRPPPSSVNTGGITEIMAEGGELEFVKRIIHDSLQLKKRLRWYSCMLGKKCSLAPLKEELRIQGVPKVTYTEFCQGRTMRWALAWSFYD
Question: How did the binding turn out when B1 was run?
Answer: Its binding is “no binding (tested: ~21 µM)”.
